# Results taken from the supplement of paper PMC10849652.
# Sequences of proteins named here, by UniProt entry; tags and fusion partners are left off. A change or cut given only in a name is not applied to a line headed by its entry.
# UniProt Q8IXI1, whole entry, looked up: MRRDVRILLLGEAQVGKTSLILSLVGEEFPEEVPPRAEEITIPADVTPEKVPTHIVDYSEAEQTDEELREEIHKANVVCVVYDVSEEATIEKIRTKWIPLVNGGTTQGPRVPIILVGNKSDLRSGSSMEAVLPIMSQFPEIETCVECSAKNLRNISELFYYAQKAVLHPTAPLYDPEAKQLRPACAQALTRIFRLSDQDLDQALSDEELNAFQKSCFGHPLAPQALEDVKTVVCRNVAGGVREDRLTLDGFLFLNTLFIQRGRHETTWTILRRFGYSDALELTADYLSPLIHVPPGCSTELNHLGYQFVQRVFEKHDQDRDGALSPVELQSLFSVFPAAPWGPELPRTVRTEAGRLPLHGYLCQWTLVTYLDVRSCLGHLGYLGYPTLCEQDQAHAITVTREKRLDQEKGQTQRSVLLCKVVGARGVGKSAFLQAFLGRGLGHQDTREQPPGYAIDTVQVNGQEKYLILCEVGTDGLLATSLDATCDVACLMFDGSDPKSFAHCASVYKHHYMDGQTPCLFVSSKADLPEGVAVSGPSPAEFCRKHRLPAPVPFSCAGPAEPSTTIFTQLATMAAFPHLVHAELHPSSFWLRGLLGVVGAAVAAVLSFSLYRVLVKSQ
# UniProt P49247: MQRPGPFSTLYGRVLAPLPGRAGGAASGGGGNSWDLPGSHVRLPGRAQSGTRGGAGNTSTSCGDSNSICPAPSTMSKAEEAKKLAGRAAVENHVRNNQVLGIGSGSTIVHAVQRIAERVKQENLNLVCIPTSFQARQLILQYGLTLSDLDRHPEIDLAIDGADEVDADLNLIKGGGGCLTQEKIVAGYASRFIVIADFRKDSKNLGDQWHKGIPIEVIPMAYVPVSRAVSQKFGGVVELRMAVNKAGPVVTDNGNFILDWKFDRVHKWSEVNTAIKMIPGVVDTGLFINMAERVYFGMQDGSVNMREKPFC
# UniProt Q6R327, whole entry, looked up: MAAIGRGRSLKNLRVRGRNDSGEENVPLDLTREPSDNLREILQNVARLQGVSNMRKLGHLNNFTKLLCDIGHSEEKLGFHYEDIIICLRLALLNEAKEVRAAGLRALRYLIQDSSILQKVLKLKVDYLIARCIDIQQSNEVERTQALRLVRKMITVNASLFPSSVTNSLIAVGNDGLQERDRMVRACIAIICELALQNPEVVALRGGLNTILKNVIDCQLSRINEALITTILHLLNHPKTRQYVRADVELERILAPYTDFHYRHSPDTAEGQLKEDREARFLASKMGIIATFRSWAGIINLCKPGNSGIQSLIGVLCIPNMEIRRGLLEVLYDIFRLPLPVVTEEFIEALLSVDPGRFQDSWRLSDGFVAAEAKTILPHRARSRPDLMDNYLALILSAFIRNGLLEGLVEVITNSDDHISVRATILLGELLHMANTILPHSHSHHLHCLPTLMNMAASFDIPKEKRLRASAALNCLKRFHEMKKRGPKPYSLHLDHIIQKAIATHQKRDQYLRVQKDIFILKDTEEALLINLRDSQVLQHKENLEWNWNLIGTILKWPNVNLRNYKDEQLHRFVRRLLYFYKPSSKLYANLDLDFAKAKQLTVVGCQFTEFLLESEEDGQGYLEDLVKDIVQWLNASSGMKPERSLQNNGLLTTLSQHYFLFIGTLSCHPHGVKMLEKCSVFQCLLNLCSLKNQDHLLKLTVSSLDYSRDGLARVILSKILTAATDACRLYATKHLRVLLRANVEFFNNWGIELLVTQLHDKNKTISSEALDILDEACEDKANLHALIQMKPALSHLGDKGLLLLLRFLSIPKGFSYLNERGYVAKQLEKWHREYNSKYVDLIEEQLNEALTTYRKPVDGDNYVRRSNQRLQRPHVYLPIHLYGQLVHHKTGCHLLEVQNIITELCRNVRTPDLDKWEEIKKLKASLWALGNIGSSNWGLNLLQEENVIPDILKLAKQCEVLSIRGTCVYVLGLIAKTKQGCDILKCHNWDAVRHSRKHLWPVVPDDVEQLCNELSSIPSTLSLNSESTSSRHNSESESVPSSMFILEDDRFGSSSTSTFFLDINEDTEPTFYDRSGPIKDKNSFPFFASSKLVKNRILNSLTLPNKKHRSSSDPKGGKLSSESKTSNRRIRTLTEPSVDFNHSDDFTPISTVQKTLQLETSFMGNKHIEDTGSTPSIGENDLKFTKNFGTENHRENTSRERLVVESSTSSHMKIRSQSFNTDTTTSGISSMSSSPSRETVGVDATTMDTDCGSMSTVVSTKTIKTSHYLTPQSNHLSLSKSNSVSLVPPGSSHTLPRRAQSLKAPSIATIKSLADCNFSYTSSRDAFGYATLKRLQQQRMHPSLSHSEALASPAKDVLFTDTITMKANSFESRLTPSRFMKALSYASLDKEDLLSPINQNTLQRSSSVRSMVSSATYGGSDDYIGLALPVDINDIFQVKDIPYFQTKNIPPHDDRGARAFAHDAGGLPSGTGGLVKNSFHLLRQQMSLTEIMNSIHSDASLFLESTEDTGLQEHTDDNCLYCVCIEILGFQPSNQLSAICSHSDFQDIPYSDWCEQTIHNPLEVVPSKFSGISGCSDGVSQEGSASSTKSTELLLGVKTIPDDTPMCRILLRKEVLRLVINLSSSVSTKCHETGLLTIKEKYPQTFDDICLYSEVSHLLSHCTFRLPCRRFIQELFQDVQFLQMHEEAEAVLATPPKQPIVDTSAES
# UniProt Q05823: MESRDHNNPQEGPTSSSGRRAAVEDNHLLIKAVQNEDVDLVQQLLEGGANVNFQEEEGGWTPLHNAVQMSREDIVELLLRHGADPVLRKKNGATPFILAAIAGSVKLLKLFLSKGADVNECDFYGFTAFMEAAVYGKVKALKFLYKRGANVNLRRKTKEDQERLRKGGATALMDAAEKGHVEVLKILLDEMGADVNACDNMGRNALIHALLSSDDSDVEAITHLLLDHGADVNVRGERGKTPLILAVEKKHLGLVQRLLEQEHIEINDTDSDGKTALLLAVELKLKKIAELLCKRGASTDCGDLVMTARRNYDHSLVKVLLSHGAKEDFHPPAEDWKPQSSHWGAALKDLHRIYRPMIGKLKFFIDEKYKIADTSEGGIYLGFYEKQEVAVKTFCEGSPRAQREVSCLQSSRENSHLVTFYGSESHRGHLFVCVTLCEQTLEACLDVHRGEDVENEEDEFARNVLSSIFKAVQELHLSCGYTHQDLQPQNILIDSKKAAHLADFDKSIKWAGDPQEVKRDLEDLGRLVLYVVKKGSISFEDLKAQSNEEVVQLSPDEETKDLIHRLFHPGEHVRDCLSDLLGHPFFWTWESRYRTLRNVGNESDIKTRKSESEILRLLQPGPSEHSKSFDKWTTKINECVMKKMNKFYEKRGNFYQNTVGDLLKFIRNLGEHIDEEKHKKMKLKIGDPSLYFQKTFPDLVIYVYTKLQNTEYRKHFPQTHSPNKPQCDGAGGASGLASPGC
# UniProt Q13464: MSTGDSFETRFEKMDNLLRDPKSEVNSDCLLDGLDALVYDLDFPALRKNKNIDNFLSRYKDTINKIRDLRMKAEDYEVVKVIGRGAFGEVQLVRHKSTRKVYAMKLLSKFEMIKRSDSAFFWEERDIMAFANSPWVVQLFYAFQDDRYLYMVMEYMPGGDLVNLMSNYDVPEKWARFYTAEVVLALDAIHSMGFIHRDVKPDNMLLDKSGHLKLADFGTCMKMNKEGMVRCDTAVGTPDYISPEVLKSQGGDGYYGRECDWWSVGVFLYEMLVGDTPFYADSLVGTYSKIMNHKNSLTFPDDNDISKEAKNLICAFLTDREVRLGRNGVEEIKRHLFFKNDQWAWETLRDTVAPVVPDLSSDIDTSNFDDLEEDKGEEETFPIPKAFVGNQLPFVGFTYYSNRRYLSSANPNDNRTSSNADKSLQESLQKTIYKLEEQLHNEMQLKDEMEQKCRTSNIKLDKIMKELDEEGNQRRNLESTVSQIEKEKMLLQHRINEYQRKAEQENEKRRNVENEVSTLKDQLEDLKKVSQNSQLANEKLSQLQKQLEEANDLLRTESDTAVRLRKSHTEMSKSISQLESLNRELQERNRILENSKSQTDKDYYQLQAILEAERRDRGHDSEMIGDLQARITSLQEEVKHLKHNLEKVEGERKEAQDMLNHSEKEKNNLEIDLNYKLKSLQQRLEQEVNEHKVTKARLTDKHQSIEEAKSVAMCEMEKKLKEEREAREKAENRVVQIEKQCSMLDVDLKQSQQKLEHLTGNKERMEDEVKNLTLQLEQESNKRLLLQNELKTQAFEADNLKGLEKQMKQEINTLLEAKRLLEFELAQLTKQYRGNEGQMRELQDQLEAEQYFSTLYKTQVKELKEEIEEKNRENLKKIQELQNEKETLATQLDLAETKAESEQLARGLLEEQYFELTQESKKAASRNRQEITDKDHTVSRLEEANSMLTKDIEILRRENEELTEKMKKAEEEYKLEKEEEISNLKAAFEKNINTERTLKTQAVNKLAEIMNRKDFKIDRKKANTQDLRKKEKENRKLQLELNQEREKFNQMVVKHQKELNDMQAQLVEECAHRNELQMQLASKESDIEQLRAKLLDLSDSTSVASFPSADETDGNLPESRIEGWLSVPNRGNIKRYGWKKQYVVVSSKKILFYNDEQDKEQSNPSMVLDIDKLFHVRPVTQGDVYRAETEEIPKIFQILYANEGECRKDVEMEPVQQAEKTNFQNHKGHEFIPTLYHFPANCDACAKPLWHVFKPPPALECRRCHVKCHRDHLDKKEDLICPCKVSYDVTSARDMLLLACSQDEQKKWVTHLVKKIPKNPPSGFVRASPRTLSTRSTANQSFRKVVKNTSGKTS
# UniProt O60930: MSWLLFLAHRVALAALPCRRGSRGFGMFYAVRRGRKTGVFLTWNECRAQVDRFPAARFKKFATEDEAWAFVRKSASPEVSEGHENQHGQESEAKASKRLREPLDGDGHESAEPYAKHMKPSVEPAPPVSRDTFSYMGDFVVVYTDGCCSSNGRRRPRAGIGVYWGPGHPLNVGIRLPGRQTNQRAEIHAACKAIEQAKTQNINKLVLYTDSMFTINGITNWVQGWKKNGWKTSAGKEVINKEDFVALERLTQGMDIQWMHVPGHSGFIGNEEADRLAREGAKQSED
# UniProt Q15287: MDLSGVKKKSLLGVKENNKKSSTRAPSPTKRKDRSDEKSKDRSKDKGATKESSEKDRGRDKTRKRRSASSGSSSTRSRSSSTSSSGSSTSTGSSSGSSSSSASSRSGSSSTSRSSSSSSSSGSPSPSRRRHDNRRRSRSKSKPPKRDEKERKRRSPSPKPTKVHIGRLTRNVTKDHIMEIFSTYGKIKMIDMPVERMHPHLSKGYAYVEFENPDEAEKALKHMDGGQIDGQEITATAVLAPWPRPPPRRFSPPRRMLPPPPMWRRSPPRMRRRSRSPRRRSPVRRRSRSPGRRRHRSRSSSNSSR
# UniProt P27694, whole entry, looked up: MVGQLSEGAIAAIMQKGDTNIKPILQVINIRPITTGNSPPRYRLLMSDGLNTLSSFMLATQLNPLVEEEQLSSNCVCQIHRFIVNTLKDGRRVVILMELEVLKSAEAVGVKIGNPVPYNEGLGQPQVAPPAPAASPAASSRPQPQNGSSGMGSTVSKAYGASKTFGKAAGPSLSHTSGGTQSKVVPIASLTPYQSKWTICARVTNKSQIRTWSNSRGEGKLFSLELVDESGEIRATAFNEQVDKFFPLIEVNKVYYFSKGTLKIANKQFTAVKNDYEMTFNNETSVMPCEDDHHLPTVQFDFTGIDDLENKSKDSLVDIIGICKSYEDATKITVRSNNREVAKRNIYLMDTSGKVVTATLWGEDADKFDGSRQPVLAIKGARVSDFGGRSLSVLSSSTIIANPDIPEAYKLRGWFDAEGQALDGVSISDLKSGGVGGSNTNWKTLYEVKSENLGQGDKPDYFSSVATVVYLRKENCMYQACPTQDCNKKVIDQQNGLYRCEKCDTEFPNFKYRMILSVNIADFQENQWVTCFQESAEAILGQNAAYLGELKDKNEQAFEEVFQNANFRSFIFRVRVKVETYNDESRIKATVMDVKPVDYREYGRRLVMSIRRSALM
# UniProt Q5VTB9: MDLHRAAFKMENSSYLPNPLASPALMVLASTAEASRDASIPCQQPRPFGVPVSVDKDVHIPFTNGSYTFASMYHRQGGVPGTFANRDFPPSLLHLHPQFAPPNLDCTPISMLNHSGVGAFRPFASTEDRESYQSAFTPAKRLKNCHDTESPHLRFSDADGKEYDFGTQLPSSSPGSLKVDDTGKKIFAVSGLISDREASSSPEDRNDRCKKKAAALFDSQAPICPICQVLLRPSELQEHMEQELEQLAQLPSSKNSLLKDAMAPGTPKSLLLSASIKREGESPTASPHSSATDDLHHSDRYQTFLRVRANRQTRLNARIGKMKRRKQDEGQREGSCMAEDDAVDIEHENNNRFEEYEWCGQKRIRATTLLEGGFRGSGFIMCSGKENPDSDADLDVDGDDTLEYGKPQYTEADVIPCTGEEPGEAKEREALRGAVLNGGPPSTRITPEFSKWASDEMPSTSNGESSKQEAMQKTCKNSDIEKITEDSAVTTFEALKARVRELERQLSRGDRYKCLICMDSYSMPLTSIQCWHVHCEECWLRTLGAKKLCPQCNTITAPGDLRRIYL
# Some of the results follow.
# Assays:
# Experiment in all cases: log2 fold change, soluble protein after heating vs DMSO (PISA); higher = thermal stabilisation; K562 lysate, 10 uM; active = over 0.2 and 3.5 SD of the protein, either way, in both replicates (recomputed)
# [1] = compound: CN1CC[C@H](c2c(O)cc(O)c3c(=O)cc(-c4ccccc4Cl)oc23)[C@H](O)C1 [alvocidib]
# In short: (§1)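 Following dounce homogenisation of K562 pellets in PBS pH 7.4 with 1 mM MgCl2, crude extract at 1 mg/mL protein was incubated for 30 min with 10 μM compound. Aliquots were then heated for 3 min over 48°C-58°C and pooled, NP-40 was added to 0.5% at 4°C, and soluble protein was recovered as the supernatant at 21,000xg for 90 min. Channel-sum-equalised TMTpro 16plex LC-MS/MS quantified this protein. Each value, from duplicates, is a log-two fold change in thermal stability relative to solvent controls.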
# [2] = compound: CN1CCc2c(c3ccccc3n2Cc2ccc(C(=O)NO)cc2)C1 [Tubastatin A]
# In short: as §1
# [3] = compound: CNC(=O)C1=CC=CC=C1NC2=NC(=NC=C2Cl)NC3=C(C=C(C=C3)N4CCOCC4)OC
# In short: as §1
# [4] = compound: CNC(=O)c1ccc(Nc2ncc(C(F)(F)F)c(NCc3nccnc3N(C)S(C)(=O)=O)n2)cc1 [defactinib]
# In short: as §1
# [5] = compound: CNc1nc(-c2ccc3c(N)n[nH]c3c2)cc(N2C[C@@H](C(=O)NC3CCCCC3)CC[C@H]2C)n1
# In short: as §1
# [6] = compound: COC(=O)N[C@@H](C)CNc1nccc(-c2cn(C(C)C)nc2-c2cc(Cl)cc(NS(C)(=O)=O)c2F)n1 [encorafenib]
# In short: as §1
# [7] = compound: COC(=O)[C@H](CCSC)NC(=O)C1=C(C=C(C=C1)NC[C@H](CS)N)C2=CC=CC=C2
# In short: as §1
# [8] = compound: COc1cc(Nc2ncc3c(n2)-c2ccc(Cl)cc2C(c2c(F)cccc2OC)=NC3)ccc1C(=O)O [alisertib]
# In short: as §1
# [9] = compound: COc1cc2nc(-c3cc(F)ccc3O)nc(N[C@@H]3CNC[C@H]3C(C)(C)O)c2cc1OC
# In short: as §1
# [10] = compound: COc1cc2ncnc(Nc3ccc(F)c(Cl)c3)c2cc1OCCCN1CCOCC1 [gefitinib]
# In short: as §1
Target,log2 fold change [1],log2 fold change [2],log2 fold change [3],log2 fold change [4],log2 fold change [5],log2 fold change [6],log2 fold change [7],log2 fold change [8],log2 fold change [9],log2 fold change [10]
RIPK2 (UniProt O43353),inactive: 0.061,inactive: -0.025,inactive: 0.042,inactive: -0.019,inactive: -0.026,inactive: 0.139,inactive: -0.003,inactive: -0.021,inactive: -0.009,
RHOT2 (UniProt Q8IXI1),inactive: 0.024,inactive: 0.016,inactive: -0.04,inactive: -0.034,inactive: 0.027,inactive: -0.013,inactive: -0.038,inactive: 0.01,inactive: 0.032,inactive: 0.043
RIC1 (UniProt Q4ADV7),inactive: 0.014,inactive: -0.051,inactive: 0.029,inactive: -0.12,inactive: 0.02,inactive: 0.037,inactive: -0.13,inactive: 0.017,inactive: -0.073,inactive: 0.024
RPIA (UniProt P49247),inactive: -0.014,inactive: 0.031,inactive: 0.042,inactive: -0.014,inactive: 0.072,inactive: -0.018,inactive: -0.037,inactive: -0.001,inactive: 0.006,inactive: 0.028
RILPL1 (UniProt Q5EBL4),inactive: 0.003,inactive: 0.022,inactive: 0.038,inactive: -0.046,inactive: 0.019,inactive: 0.029,inactive: -0.039,inactive: 0.028,inactive: -0.001,inactive: 0.018
RNF214 (UniProt Q8ND24),inactive: -0.037,inactive: -0.013,inactive: -0.012,inactive: 0.021,inactive: 0.009,inactive: 0.033,inactive: -0.077,inactive: 0.001,inactive: 0.02,inactive: 0.022
RICTOR isoform 3 (UniProt Q6R327),inactive: 0.141,inactive: -0.197,inactive: 0.061,inactive: 0.284,inactive: 0.141,inactive: 0.044,inactive: -0.014,inactive: -0.033,inactive: 0.068,inactive: -0.001
RHOG (UniProt P84095),inactive: 0.048,inactive: 0.016,inactive: -0.006,inactive: 0.03,inactive: 0.065,inactive: -0.011,inactive: -0.068,inactive: 0.007,inactive: 0.052,inactive: -0.063
RNASEL (UniProt Q05823),inactive: 0.054,inactive: -0.094,inactive: -0.034,inactive: -0.02,inactive: 0.012,inactive: 0.029,inactive: 0.144,inactive: -0.074,inactive: -0.035,inactive: 0.061
RPL15 (UniProt P61313),inactive: 0.034,inactive: -0.015,inactive: -0.007,inactive: 0.018,inactive: -0.058,inactive: 0.011,inactive: -0.048,inactive: 0.011,inactive: -0.005,inactive: 0.002
RPL36A (UniProt P83881),inactive: -0.033,inactive: 0.03,inactive: -0.035,inactive: 0.031,inactive: 0.027,inactive: 0.098,inactive: 0.055,inactive: 0,inactive: 0.024,inactive: -0.027
ROCK1 (UniProt Q13464),inactive: 0.004,inactive: 0.013,inactive: -0.029,inactive: -0.02,inactive: 0.039,inactive: -0.004,inactive: -0.019,inactive: -0.045,inactive: 0.022,inactive: -0.004
RIOK3 (UniProt O14730),inactive: -0.04,active: -0.273,inactive: 0.029,inactive: 0.018,inactive: 0.12,inactive: 0.058,inactive: 0.132,inactive: -0.006,inactive: 0,inactive: 0.055
RNF126 (UniProt Q9BV68),inactive: -0.038,inactive: 0.04,inactive: 0.046,inactive: -0.105,inactive: 0.002,inactive: 0.057,inactive: -0.322,inactive: -0.011,inactive: -0.019,inactive: 0.016
RPL12 (UniProt P30050),inactive: 0.01,inactive: 0.077,inactive: -0.033,inactive: -0.023,inactive: 0.034,inactive: -0.002,inactive: -0.009,inactive: 0,inactive: 0.018,inactive: -0.015
RMND5A (UniProt Q9H871),inactive: -0.022,inactive: -0.038,inactive: 0.034,inactive: 0.042,inactive: 0.003,inactive: 0.054,inactive: 0.015,inactive: -0.008,inactive: 0.007,inactive: -0.001
RNASEH1 (UniProt O60930),inactive: 0.024,,,,,,,,,
ROCK2 (UniProt O75116),inactive: 0,inactive: -0.008,inactive: 0.021,inactive: -0.012,inactive: 0.13,inactive: 0.013,inactive: -0.008,inactive: -0.03,inactive: 0.175,inactive: 0.002
RPL24 (UniProt P83731),inactive: 0.01,inactive: 0.031,inactive: -0.015,inactive: -0.001,inactive: 0.021,inactive: -0.006,inactive: -0.009,inactive: -0.003,inactive: -0.001,inactive: -0.015
RPL22 (UniProt P35268),inactive: -0.016,inactive: 0.045,inactive: -0.026,inactive: -0.044,inactive: 0.038,inactive: -0.007,inactive: 0.004,inactive: 0.023,inactive: 0.003,inactive: -0.022
RNPS1 (UniProt Q15287),inactive: -0.043,inactive: 0.102,inactive: 0.02,inactive: -0.009,inactive: 0.029,inactive: 0.069,inactive: 0.01,inactive: 0.02,inactive: 0.01,inactive: 0.006
RPA1 (UniProt P27694),inactive: 0.04,inactive: 0.001,inactive: 0.004,inactive: -0.006,inactive: 0.015,inactive: -0.002,inactive: 0.001,inactive: 0.009,inactive: 0,inactive: 0.041
RPL26L1 (UniProt Q9UNX3),inactive: 0.091,inactive: -0.003,inactive: -0.006,inactive: -0.007,inactive: 0.016,inactive: 0.003,inactive: 0.037,inactive: -0.036,inactive: -0.01,inactive: -0.068
RIC8A (UniProt Q9NPQ8),inactive: 0,inactive: -0.092,inactive: 0.009,inactive: 0.058,inactive: -0.033,inactive: 0.04,inactive: 0.023,inactive: -0.008,inactive: -0.016,inactive: 0.024
RIPK1 (UniProt Q13546),inactive: 0.001,inactive: -0.108,inactive: 0.044,inactive: 0.065,inactive: 0.035,inactive: -0.017,inactive: 0.025,inactive: -0.025,inactive: -0.016,inactive: 0.042
RHOT1 isoform 3 (UniProt Q8IXI2),inactive: -0.079,inactive: 0.013,inactive: -0.018,inactive: 0.018,inactive: -0.003,inactive: -0.019,inactive: 0.001,inactive: 0.028,inactive: -0.01,inactive: 0.083
RPAP2 (UniProt Q8IXW5),inactive: 0.007,inactive: -0.027,inactive: -0.007,inactive: 0.03,inactive: -0.041,inactive: 0.007,inactive: 0.014,inactive: 0.005,inactive: 0.012,inactive: 0.047
RNF220 (UniProt Q5VTB9),inactive: -0.007,inactive: 0.013,inactive: -0.012,inactive: 0.029,inactive: 0.068,inactive: 0.015,inactive: -0.05,inactive: -0.001,inactive: 0.006,inactive: -0.118
RNGTT (UniProt O60942),inactive: 0.003,inactive: -0.061,inactive: 0.003,inactive: 0.02,inactive: -0.032,inactive: 0.064,inactive: 0.098,inactive: -0.002,inactive: -0.035,inactive: -0.018
RPL29 (UniProt P47914),inactive: 0.054,inactive: 0.052,inactive: 0.02,inactive: 0.058,inactive: 0.077,inactive: 0.025,inactive: -0.02,inactive: 0.027,inactive: -0.003,inactive: -0.084

# Some entries already given, limited to log2 fold change [9] and log2 fold change [4].
Target	log2 fold change [9]	log2 fold change [4]
ROCK1 (UniProt Q13464)	inactive: 0.022	inactive: -0.02
ROCK2 (UniProt O75116)	inactive: 0.175	inactive: -0.012

# A few values from above.
# Under log2 fold change [1], RPAP2 (UniProt Q8IXW5) is listed with inactive: 0.007
# Under log2 fold change [9], RPL24 (UniProt P83731) is listed with inactive: -0.001
